Here are results for 16 compounds from patent US20260140287A1, “LIQUID CRYSTAL COMPOSITION, OPTICAL ABSORPTION ANISOTROPIC FILM, METHOD OF PRODUCING OPTICAL ABSORPTION ANISOTROPIC FILM, OPTICAL LAMINATE, AND IMAGE DISPLAY APPARATUS” (FUJIFILM Corporation, priority 2023, published 2026).

Some entries repeat one wording, which the source may state once for all of them.

The data set in a line: Alignment degree of the light absorption anisotropic film (absorbance with linear polarizer, 400 nm to 700 nm). The note with it: light absorption anisotropic film from liquid crystal composition P1 with the listed dichroic substance in place of Y1.

With `COC(C)(CCCCOc1ccc(/N=N/c2ccc(/N=N/c3ccc(/N=N/c4ccc(OCCCCC(C)(OC)OC)cc4Cl)cc3C)cc2)c(Cl)c1)OC` [B-1], the alignment degree result is listed as “AA (The alignment degree was 0.95 or more)”.
Under `Cc1cc(/N=N/c2ccc(OCCCCC3(C)OCCO3)cc2)ccc1/N=N/c1ccc(/N=N/c2ccc(OCCCCC3(C)OCCO3)cc2)cc1` [B-5] stands “A (The alignment degree was 0.93 or greater and less than 0.95)”.
Under `Cc1cc(/N=N/c2ccc(OCCCCC(=O)OC(C)(C)C)cc2)ccc1/N=N/c1ccc(/N=N/c2ccc(OCCCCC(=O)OC(C)(C)C)cc2)cc1` [B-8] stands “A (The alignment degree was 0.93 or greater and less than 0.95)”; under `CCOC(=O)CCCCOc1ccc(/N=N/c2ccc(/N=N/c3ccc(/N=N/c4ccc(OCCCCC(=O)OCC)cc4)cc3C)cc2)cc1` [HB-2, reference compound], “AA (The alignment degree was 0.95 or more)”.
As for `C=CC(=O)OCCCCCCCCCOc1ccc(/N=N/c2cc3sc(/N=N/c4ccc(N(C)CCOC(=O)CCC(C)(OC)OC)cc4)nc3s2)cc1` [B-3], the entry is “A (The alignment degree was 0.93 or greater and less than 0.95)”.
As for `Cc1cc(/N=N/c2ccc(OCCCCC(OCCC[Si](C)(C)C)OCCC[Si](C)(C)C)cc2)ccc1/N=N/c1ccc(/N=N/c2ccc(OCCCCC(OCCC[Si](C)(C)C)OCCC[Si](C)(C)C)cc2)cc1` [B-13], the alignment degree entry is “A (The alignment degree was 0.93 or greater and less than 0.95)”.
Under `COC(C)(CCCCOc1ccc(/N=N/c2ccc(/N=N/c3ccc(N(C)C)cc3)cc2)cc1)OC` [B-4] stands “A (The alignment degree was 0.93 or greater and less than 0.95)”.
`C=CC(=O)CCCCCOc1ccc(/N=N/c2ccc(/N=N/c3ccc(/N=N/c4ccc(OCCCCOC(=O)C=C)cc4C)cc3C)cc2)c(C)c1` [HB-3, reference compound]: the alignment degree entry is on record as “C (The alignment degree was less than 0.90)”.
Under `COC(CCCCOc1ccc(/N=N/c2ccc(/N=N/c3ccc(/N=N/c4ccc(OCCCCC(OC)OC)cc4)cc3C)cc2)cc1)OC` [B-7] stands “A (The alignment degree was 0.93 or greater and less than 0.95)”; under `Cc1cc(/N=N/c2ccc(OCCCNC(=O)OC(C)(C)C)cc2)ccc1/N=N/c1ccc(/N=N/c2ccc(OCCCNC(=O)OC(C)(C)C)cc2)cc1` [B-10], “B (The alignment degree was 0.90 or greater and less than 0.83)”.
With `CCOC(C)OCCCCOc1ccc(/N=N/c2ccc(/N=N/c3ccc(/N=N/c4ccc(OCCCCOC(C)OC)cc4)cc3)c(C)c2)cc1` (stereo not shown) [B-6], the alignment degree result was “A (The alignment degree was 0.93 or greater and less than 0.95)”.
Under `CC(=O)CCCCOc1ccc(/N=N/c2ccc(/N=N/c3ccc(/N=N/c4ccc(OCCCCC(C)=O)cc4Cl)cc3C)cc2)c(Cl)c1` [HB-1, reference compound] stands “AA (The alignment degree was 0.95 or more)”.
For the compound `CC(=O)OC(C)(C)CCCOc1ccc(/N=N/c2ccc(/N=N/c3ccc(/N=N/c4ccc(OCCCC(C)(C)OC(C)=O)cc4)cc3C)cc2)cc1` [B-9], the alignment degree result was “A (The alignment degree was 0.93 or greater and less than 0.95)”.
As for `COC(C)(CCOCCOc1ccc(/N=N/c2ccc(/N=N/c3ccc(/N=N/c4ccc(OCCOCCC(C)(OC)OC)cc4)cc3C)cc2)cc1)OC` [B-11], the entry is “A (The alignment degree was 0.93 or greater and less than 0.95)”; as for `Cc1cc(/N=N/c2ccc(OCCCCC(OCCC(F)(F)F)OCCC(F)(F)F)cc2)ccc1/N=N/c1ccc(/N=N/c2ccc(OCCCCC(OCCC(F)(F)F)OCCC(F)(F)F)cc2)cc1` [B-12], “A (The alignment degree was 0.93 or greater and less than 0.95)”.
With `CCCCCCCCOc1ccc(C(=O)Oc2ccc(/N=N/c3ccc(/N=N/c4ccc(OCCCCC(C)(OC)OC)cc4C)cc3)cc2)cc1` [B-2], the alignment degree entry was “A (The alignment degree was 0.93 or greater and less than 0.95)”.
